Reference: doi:10.1101/2024.07.01.601539
No constants are given. Whether binding was seen depends on the method and setting. Binding seen in cells or lysates may run through a third protein. Some results given as binding are weak or reduced against the parent protein; the word gives no strength.

Sequences of proteins named here, by UniProt entry; tags and fusion partners are left off. Residues count along the entry.
UniProt Q9BXW4, residues 1-126: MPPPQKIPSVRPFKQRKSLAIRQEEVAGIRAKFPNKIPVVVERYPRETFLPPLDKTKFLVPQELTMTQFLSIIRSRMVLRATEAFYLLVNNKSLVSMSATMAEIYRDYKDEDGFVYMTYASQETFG
UniProt P04792: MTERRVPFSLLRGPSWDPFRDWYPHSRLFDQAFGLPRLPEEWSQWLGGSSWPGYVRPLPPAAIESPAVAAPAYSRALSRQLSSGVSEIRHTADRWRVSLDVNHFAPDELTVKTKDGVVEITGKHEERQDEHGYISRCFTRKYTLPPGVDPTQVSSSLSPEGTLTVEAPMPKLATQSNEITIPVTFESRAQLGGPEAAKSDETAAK

Target: LC3C (endogenous, human primary gingival epithelial cells) (human (endogenous in primary GECs)) (UniProt Q9BXW4)
Assay: co-IP

Heat Shock Protein 27 (HSp27) (endogenous, human primary gingival epithelial cells) (from UniProt P04792 1-205)
binding: binds
